This is one part of the list. Shown are side measurements of this screen, not its main read-out; they come without a call. Most of these compounds were active or inconclusive in the main read-out, so they are no random draw. The note in brackets gives the kind of curve behind each potency; many fits are weak.
Test: qHTS Assay for Identifying the Cell-Membrane Permeable IMPase Inhibitors
Conditions: CHO-M1 cells, IP1 accumulation, HTRF TR-FRET ratio; measured here: donor channel 620 nm AC50

Compound	AC50
CC(C)N(C(=O)CSc1nc2ccccc2n1Cc1ccccc1F)C(C)C	10 µM [falling, partial curve]
CC1CCN(c2oc(-c3cccc4ccccc34)nc2C#N)CC1	0.398 µM [falling, full curve, poor fit]
CC[n+]1cc(-c2ccccc2)nc(N2CCOCC2)n1	25.1 µM [falling, single point]
COc1c(C)cccc1C(=O)Nc1ccc(CN2CCOCC2)cc1	2.82 µM [rising, single point]
COc1ccc(N2C(=O)CC(N3CCC(O)(c4cccc(C(F)(F)F)c4)CC3)C2=O)cc1 (stereo not given)	0.0126 µM [rising, full curve, poor fit]
COc1ccccc1NC(=O)COc1ccc(/C=N/NS(=O)(=O)c2ccc(C)cc2)cc1	1 µM [rising, full curve]
COCCNC(=O)c1c(N)n(-c2cccc(C)c2)c2nc3ccccc3nc12	0.0631 µM [falling, full curve, poor fit]
O=C(Nc1ccc(F)cc1F)NC1CC(=O)N(Cc2ccccc2)C1 (stereo not given)	3.98 µM [falling, partial curve, poor fit]
O=C(Nc1ccc(C2CCCCC2)cc1)C1CCCN(c2ncccn2)C1 (stereo not given)	0.0501 µM [falling, full curve]
O=C(Nc1ccc2c(c1)oc1ccccc12)C1CC1	3.98 µM [rising, single point]
O=C(Nc1ccccc1C(=O)NCCCn1ccnc1)c1ccc(Cl)cc1Cl	0.0398 µM [falling, full curve]
C/C(=N/NS(=O)(=O)c1ccc(Br)cc1)c1ccc(NC(=O)c2ccc(C)o2)cc1	15.8 µM [falling, partial curve, poor fit]
COC(=O)c1[nH]c2c(c1C)C(=O)CC(c1cc(OC)ccc1OC)C2 (stereo not given)	5.62 µM [rising, single point]
O=C1OC(c2cccs2)=N/C1=C\c1ccc(-c2ccccc2Cl)o1	6.31 µM [falling, single point]
COc1ccc(N(C(=O)c2ccco2)C(C(=O)NC2CCCC2)c2ccc(N(C)C)cc2)cc1OC (stereo not given)	0.126 µM [falling, single point]
CCOC(=O)c1c(NC(=O)CSc2nnc(-c3ccco3)o2)sc(C(C)=O)c1C	12.6 µM [rising, single point]
Cc1ccc(C)c(NC(=S)NC2CC3CCCC(C2)N3CC(C)C)c1 (stereo not given)	0.2 µM [falling, full curve]
Cc1nonc1OCC(C)(COc1nonc1C)NC(=O)c1ccc(Cl)cc1	15.8 µM [falling, single point]
Cn1c(=O)c2c(nc(NCCCO)n2CCc2ccccc2)n(C)c1=O	0.00316 µM [rising, full curve, poor fit]
Cc1cc(=O)oc2c3c4c(cc12)OCCN4CCC3	0.0126 µM [falling, full curve, poor fit]
CCOc1ccc(CCNC(=O)CSc2cc(=O)n(C)c3cc(Cl)ccc23)cc1OCC	31.6 µM [rising, single point]
O=C(Nc1ccccc1N1CCN(c2ccc(F)cc2)CC1)C12CC3CC(CC(C3)C1)C2	0.158 µM [falling, full curve, poor fit]

Compound	AC50
CCc1ccc(C2c3c(oc4ccc(F)cc4c3=O)C(=O)N2c2nc(C)c(C(=O)OC)s2)cc1 (stereo not given)	0.316 µM [falling, partial curve]
O=C(Nc1c(-c2ccccc2)nc2c(Br)cc(Br)cn12)c1ccco1	10 µM [rising, partial curve]
CN1CCN(CC(=O)Nc2sc3c(c2C#N)CCC(C(C)(C)C)C3)CC1 (stereo not given)	31.6 µM [rising, single point]
COc1ccc(C2=NN(C(=O)CSc3ncccn3)C(c3ccc(C)cc3)C2)cc1 (stereo not given)	4.47 µM [rising, single point]
CCC(C)NC(=O)CCc1c(C)nc2nc(-c3cc(OC)cc(OC)c3)nn2c1C (stereo not given)	0.0158 µM [rising, full curve, poor fit]
O=C(CNc1ccccc1)N/N=C/c1ccc([N+](=O)[O-])o1	0.158 µM [falling, full curve, poor fit]
CCC(=O)N1CCc2cc(S(=O)(=O)NCCCN3CCN(Cc4ccccc4)CC3)ccc21	15.8 µM [falling, single point]
Cc1ccc(S(=O)(=O)C(C#N)c2nc3ccccc3nc2N2CCCC2)cc1 (stereo not given)	10 µM [falling, partial curve, poor fit]
O=C(CSc1nc(Cc2ccccc2)nc2ccccc12)Nc1ccc2c(c1)OCCO2	0.794 µM [falling, full curve, poor fit]
Cc1ccc2oc(-c3ccc(NC(=O)c4ccc5c(c4)OCO5)cc3)nc2c1	0.794 µM [falling, full curve]
O=C(c1ccc(C(F)(F)F)cc1)N1CCCCC1	3.98 µM [rising, single point]
COC(=O)NNC(=O)COc1ccc(Cl)cc1	0.158 µM [falling, single point]
COc1cc(C2N(c3ccc(Cl)c(Cl)c3)C(=O)C3CCCN32)cc(OC)c1OC (stereo not given)	5.01 µM [rising, full curve, poor fit]
CCOc1cc(CNc2ccc(O)cc2)ccc1OCc1ccc(Cl)cc1Cl	22.4 µM [falling, partial curve, poor fit]
CCOC(=O)C(Sc1nnc(-c2ccncc2)o1)C(C)=O (stereo not given)	0.0316 µM [falling, full curve, poor fit]
COC(=O)CNc1nc(C2CC2)nc2c1nnn2Cc1ccccc1Cl	0.398 µM [falling, full curve]
CCCCn1c(SCC(=O)Nc2nc(C)cs2)nnc1-c1cccnc1	0.1 µM [rising, full curve, poor fit]
CCOC(=O)CNC(=O)Nc1nnc(-c2ccc(OCC)cc2)o1	1 µM [falling, full curve, poor fit]
CC(=O)c1ccc(CCCCCCCCCC(=O)O)s1	12.6 µM [rising, single point]
CN(C)c1ccc(NC(=O)CSc2nc(N)c(C(=O)Nc3ccc(N(C)C)cc3)s2)cc1	15.8 µM [falling, single point]
CCOc1ccc(/C=N/NC(=O)c2ccccc2NC(=O)c2ccc(OC)cc2)cc1	12.6 µM [rising, partial curve]
CCCCn1c(NS(=O)(=O)c2ccccc2)c(S(=O)(=O)c2ccc(C)cc2)c2nc3ccccc3nc21	28.2 µM [rising, single point]

Gathered by group: the compounds so far containing bromine (two)
Compound	AC50
C/C(=N/NS(=O)(=O)c1ccc(Br)cc1)c1ccc(NC(=O)c2ccc(C)o2)cc1	15.8 µM [falling, partial curve, poor fit]
O=C(Nc1c(-c2ccccc2)nc2c(Br)cc(Br)cn12)c1ccco1	10 µM [rising, partial curve]

Later entries:

Compound	AC50
Cc1cccc(Cn2cnc3c(nnn3Cc3ccccc3F)c2=O)c1	3.98 µM [falling, partial curve]
CC(C)Cc1nnc(NS(C)(=O)=O)s1	1.26 µM [falling, partial curve, poor fit]
O=C(COc1ncnc2ccccc12)Nc1cccc(S(=O)(=O)N2CCOCC2)c1	15.8 µM [rising, single point]
COc1ccc2nc(C)cc(SCC(=O)Nc3c(C)cc(C)cc3C)c2c1	25.1 µM [rising, single point]
COC(=O)C1=C(C)N(C2CCCCC2)C(=O)C1	31.6 µM [falling, single point]
CCNC(=O)COC(=O)C1C(C(=O)OCC)=C(C)NC(C)=C1C(=O)OCC	1.26 µM [falling, full curve, poor fit]
O=C(COC(=O)C12CC3CC(CC(C3)C1)C2)Nc1ncc(Cl)cc1Cl	7.94 µM [falling, partial curve, poor fit]
O=C(CCC(=O)OCC(=O)c1ccc(-c2ccccc2)cc1)Nc1cccc(Cl)c1	0.501 µM [falling, single point]
CCn1nnnc1SCC(=O)c1ccc(NC(C)=O)cc1	12.6 µM [falling, partial curve]
O=C(CCn1nnc2ccccc21)Nc1nnc(COc2ccc(F)cc2)s1	0.0158 µM [rising, full curve, poor fit]
CCn1c(=N)c(C(=O)NCCCOC)cc2c(=O)n3cccc(C)c3nc21	3.98 µM [falling, single point]
COCCn1c(SCC(=O)N2CC(=O)Nc3ccccc32)nnc1-c1ccoc1C	0.794 µM [falling, full curve]
O=C(O)c1ccccc1NCN1C(=O)C2CC=C(Cl)CC2C1=O (stereo not given)	15.8 µM [rising, partial curve]
CCCCNC(=O)NNC(=O)c1ccoc1C	0.1 µM [falling, full curve, poor fit]
COc1ncnc2c1N=C1CC(C)(C)CC(N)=C1S2	12.6 µM [falling, single point]
COc1ccc(/C=N/NC(=O)CSCc2ccc([N+](=O)[O-])cc2)cc1OC	0.0316 µM [falling, full curve, poor fit]
CCCn1c(=O)c2ccccc2n2c(SCC(=O)Nc3cc(C)on3)nnc12	0.0158 µM [falling, full curve, poor fit]
C=CCNC(=O)c1ccc(Sc2ccccc2)c([N+](=O)[O-])c1	0.316 µM [falling, full curve, poor fit]
O=S(=O)(Nc1ccc(N2CCCCC2)cc1)c1cccs1	0.02 µM [falling, full curve, poor fit]
O=S(=O)(Nc1nc2ccccc2nc1Cl)c1ccccc1	11.2 µM [rising, partial curve]
CCN1C(=O)/C(=C2/C=Cc3cc(C)ccc3N2CC)N(C)C1=S	12.6 µM [falling, single point]
